The supplement of paper PMC12889115
The other results are listed elsewhere or left out. Values are raw readings; no control value is given beside them.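 In the initial screen, polymyxin B was used at a concentration that permeabilizes Salmonella's outer membrane but not its inner membrane. Maximum growth was set by DMSO wells with or without polymyxin B. Since plates varied, data were ranked per plate, and compounds giving the lowest OD600 advanced as hits.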

Test system: Salmonella enterica serovar Typhimurium SL1344
Test: bacterial growth OD600 after 18 h with compound and polymyxin B; higher = more bacterial growth (less inhibition)
Conditions: 50 µM, Mueller-Hinton broth

| Compound | bacterial growth OD600 (polymyxin B 1 µg/mL) | bacterial growth OD600 (polymyxin B 0.75 µg/mL) |
| --- | --- | --- |
| O=S(=O)(Cc1ccccc1)NCC1CCCN(Cc2nc3ccccc3s2)C1 (configuration not stated) | 0.887 |  |
| COC(=O)CNC(=O)CC(c1ccccc1)c1ccccc1Cl (configuration not stated) | 0.805 |  |
| Cc1cnc(SCc2ccccn2)nc1C1CCCN(C(=O)/C=C/c2ccc(F)cc2)C1 (configuration not stated) |  | 0.68 |
| O=C(CCN1Cc2ccccc2OC(c2ccccc2)C1)NCC1CCCN(c2ncccn2)C1 (configuration not stated) |  | 0.012 |
| OC1(Cc2cc(-c3ccccc3)no2)CCN(Cc2ccc3c(c2)OCCO3)CC1 | 0.892 |  |
| CCO[C@H]1[C@H](NC(=O)c2cccnc2)c2ccccc2C12CCN(C(=O)c1ccccc1)CC2 |  | 0.765 |
| CCC(O)C1CCN(C(=O)CN2Cc3ccccc3OC(c3ccccc3F)C2)CC1 (configuration not stated) |  | 0.539 |
| O=C(CC(c1ccccc1)c1ccc(Cl)cc1)NCCN1CCOC1=O (configuration not stated) | 0.913 |  |
| O=C1CCCN1CC(=O)N1CCOC(CCCc2ccccc2)C1 (configuration not stated) |  | 0.859 |
| COc1cccc(OCC(O)CNC2CCN(c3ccc(NC(=O)C4CCCC4)cc3)CC2)c1 (configuration not stated) |  | 0.801 |
| CCc1csc(CNC(=O)c2ccc(NC)nc2)n1 | 0.877 |  |
| CC(=O)N1CCC(Oc2ccc(C(=O)NC3CCCC3)cc2Cl)CC1 | 1.15 |  |
| CCN(CC)CCNC(=O)c1ccc(OC2CCN(C(=O)C3CC3)CC2)cc1 | 0.832 |  |
| COC(=O)Cn1cc(CN2CC[C@@H](N3CCOCC3)[C@H](O)C2)c2ccccc21 |  | 0.925 |
| COc1ccnc(N2CCC(C3CCN(Cc4cccnc4)CC3)C2)n1 (configuration not stated) |  | 0.82 |
| O=C(CCOc1ccccc1)Nc1ccnn1C1CCN(C2CCCC2)CC1 |  | 0.824 |

Retrieved one by one from the list above:

| Compound | bacterial growth OD600 (polymyxin B 1 µg/mL) | bacterial growth OD600 (polymyxin B 0.75 µg/mL) |
| --- | --- | --- |
| CCN(CC)CCNC(=O)c1ccc(OC2CCN(C(=O)C3CC3)CC2)cc1 | 0.832 |  |
| CC(=O)N1CCC(Oc2ccc(C(=O)NC3CCCC3)cc2Cl)CC1 | 1.15 |  |

Remaining list, next part:

| Compound | bacterial growth OD600 (polymyxin B 1 µg/mL) | bacterial growth OD600 (polymyxin B 0.75 µg/mL) |
| --- | --- | --- |
| CCC(COC)NC(=O)c1ccc2oc(Cc3ccc(Cl)cc3)nc2c1 (configuration not stated) | 1.05 |  |
| O=C(CC(c1ccccc1)c1ccccc1Cl)NCCN1CCOC1=O (configuration not stated) | 0.939 |  |
| O=C(c1cccnc1)C1CCCN(Cc2nc(-c3ccc4c(c3)OCO4)no2)C1 (configuration not stated) | 0.901 |  |
| O=C(NCCN1CCOCC1)C1CCC(=O)N(CCCc2ccccc2)C1 (configuration not stated) | 1.03 |  |
| O=C(CC(c1cccc(O)c1)c1cccc(Cl)c1)NCc1n[nH]c2c1CCC2 (configuration not stated) | 0.504 |  |
| c1ccc(CCC2CCCN(Cc3cccnc3)C2)cc1 (configuration not stated) |  | 0.822 |
| COc1ccc(OC2CCN(C(C)=O)CC2)c(C(=O)NCCc2ccccc2OC)c1 | 1.13 |  |
| O=C(NCCc1ccccc1)N1C[C@H]2OC(=O)N(Cc3ccccn3)[C@H]2C1 |  | 0.97 |
| COCCN(CC1CCN(Cc2ccccc2OC)CC1)C(=O)CN1CCCCC1 | 0.974 |  |
| COc1ccc(-c2noc(CN(C)Cc3cnn(-c4cccc(OC)c4)c3)n2)cc1 | 0.857 |  |
| COc1ccc(OC2CCN(C(=O)C3CC3)CC2)c(C(=O)NC2CCCc3ccccc32)c1 (configuration not stated) |  | 0.621 |
| CCNC(=O)c1sc2ncnc(NCCc3ccccn3)c2c1C |  | 1.02 |
| Cc1cnccc1CN(C)C(=O)CC(c1cccc(O)c1)c1cccc(Cl)c1 (configuration not stated) | 0.006 |  |
| COCCN1CC(C(=O)NCc2csc(-c3ccccc3)n2)CCC1=O (configuration not stated) | 0.851 |  |
| COCCN1CC(C(=O)NCC2(O)CCCCC2)CCC1=O (configuration not stated) | 1.1 |  |
| Cc1cc2nc(N3CCC(C(=O)NC4CCCCCC4)CC3)nc(C)c2cc1C |  | 0.009 |
